Assay results taken from patent US5731286A, “Cyclic neurokinin A antagonists” (Merrell Pharmaceuticals, Inc., priority 1997, dated 1998).
At least one peptide structure holds a part that was inferred or is arguable (an end, a ring closure or a residue). *1 amine or outer side, *2 acyl side, *3 side chain or, on linkers, in order; H or OH if unused. Where a SMILES comes first, the peptide text is derived from it. [ ]: non-standard residue; d: D form. X1 = CC(C)C[C@@H](CN(C)[C@@H](CC(C)C)C(=O)[*:2])N[*:1]

Legend:
NKA receptor = target: T1, NKA receptor (Mesocricetus auratus, UniProt P51144); assay: NKA-induced phosphatidylinositol (PI) turnover in hamster urinary bladder; format: cell-based; details: for Relative potency of the two peptides as antagonists of NKA-induced PI turnover: at 100 nM and 1 μM (FIGS. 4 and 5); for Induction of PI turnover by compound alone (agonist activity): concentrations up to 10 μM
T1 construct: Urinary bladders from several hamsters were pooled and chopped at 350 μm with a tissue chopper; from tissue; host or cells: hamster urinary bladder (chopped tissue slices)
T1 sequence (P51144 1-384): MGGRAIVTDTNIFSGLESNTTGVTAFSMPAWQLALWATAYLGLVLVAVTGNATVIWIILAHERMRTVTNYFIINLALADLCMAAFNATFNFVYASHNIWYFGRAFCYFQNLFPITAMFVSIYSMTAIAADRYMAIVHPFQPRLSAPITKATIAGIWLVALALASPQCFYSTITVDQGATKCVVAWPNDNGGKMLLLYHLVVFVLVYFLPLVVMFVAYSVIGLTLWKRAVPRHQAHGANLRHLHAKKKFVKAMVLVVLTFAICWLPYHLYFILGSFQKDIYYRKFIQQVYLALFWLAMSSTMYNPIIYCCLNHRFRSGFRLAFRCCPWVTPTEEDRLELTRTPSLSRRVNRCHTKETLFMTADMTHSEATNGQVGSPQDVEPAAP

rat urinary bladder = assay: In situ rat urinary bladder preparation, NKA-induced bladder contraction; format: in vivo; details: 25 μg applied 5 min before second NKA (10 μg) application, two rats
Method: FIG. 6. […] Continuous tracing shown for each animal.
Rats, (female Sprague-Dawley, 150-200 g) were anesthetized with ketamine HCl (100 mg/kg i.p.) supplemented with urethane (1.2 g/kg i.p.). […] A needle was inserted into the apex of the bladder dome and saline was perfused through the bladder at a rate of 100 μl per minute. Bladder outflow was collected via a polyethylene cannula inserted into the urethra. Bladder contractions were monitored through a flow pressure transducer connected in series with the perfusion system. Test compounds were applied onto the bladder dome in 40-100 μl of saline or saline containing a minimum of DMSO. […] Antagonist was similarly applied onto the bladder 5 min before a repeated application of NKA. […] Amplitude (force) of contraction and 1-min time intervals were recorded continuously for each animal.

[1] = target: T2, neurokinin A (NK2) receptor (Mesocricetus auratus, UniProt P51144); assay: Competition for binding of 125I-labeled neurokinin A in hamster urinary bladder membranes; details: FIG. 1, 6-12 experiments
T2 construct: Urinary bladders from several hamsters were pooled, minced, and homogenized; from tissue; host or cells: hamster urinary bladder (membrane pellet)
T2 sequence (P51144 1-384): T1 sequence (P51144 1-384)

SMILES: CC(C)C[C@H]1CN(C)[C@@H](CC(C)C)C(=O)N[C@@H](CCC(N)=O)C(=O)N[C@@H](Cc2c[nH]c3ccccc23)C(=O)N[C@@H](Cc2ccccc2)C(=O)NCC(=O)N1 [cyclo(Gln-Trp-Phe-Gly-Leu-CH2 NCH3 -Leu), cyclo[Leu.PSI.[CH2 NCH3 ]Leu-Gln-Try-Phe-Gly]] (cyclo(FG[X1]QW))
- Shift of the NKA dose-response line (PI turnover) (NKA receptor; antagonist 100 nM): parallel, rightward shift
- Shift of the NKA dose-response line (PI turnover) (NKA receptor; antagonist 1 μM): parallel, rightward shift
- Shift of the NKA dose-response line (PI turnover) (NKA receptor; antagonist 10M): rightward shift
- Relative potency of the two peptides as antagonists of NKA-induced PI turnover (NKA receptor): equipotent to each other
- Induction of PI turnover by compound alone (agonist activity) (NKA receptor): Neither compound alone at concentrations up to 10 μM produced any induction of PI turnover
- Effect on NKA-induced bladder contraction (rat urinary bladder): markedly attenuated or completely blocked
- Relative potency as competitor for I125-labeled NKA binding [1]: a more potent competitor than cyclo(Gln-Trp-Phe-Gly-Leu-CH2 NH-Leu) and was more potent than the agonist, NKA, itself

SMILES: CC(C)C[C@H]1CN[C@@H](CC(C)C)C(=O)N[C@@H](CCC(N)=O)C(=O)N[C@@H](Cc2c[nH]c3ccccc23)C(=O)N[C@@H](Cc2ccccc2)C(=O)NCC(=O)N1 [cyclo(Gln-Trp-Phe-Gly-Leu-CH2 NH-Leu), cyclo[Leu.PSI.[CH2 NH]Leu-Gln-Trp-Phe-Gly]]
- Shift of the NKA dose-response line (PI turnover) (NKA receptor; antagonist 10 nM): rightward shift
- Shift of the NKA dose-response line (PI turnover) (NKA receptor; antagonist 100 nM): parallel, rightward shift
- Shift of the NKA dose-response line (PI turnover) (NKA receptor; antagonist 1 μM): parallel, rightward shift
- Relative potency of the two peptides as antagonists of NKA-induced PI turnover (NKA receptor): equipotent to each other
- Induction of PI turnover by compound alone (agonist activity) (NKA receptor): Neither compound alone at concentrations up to 10 μM produced any induction of PI turnover
